Measured values published in PubChem BioAssay AID1439 (NMMLSC, 2008).
Hit rate of the full screen: of about 220,000 compounds, about 770 (0.35%) were called active. The shares of active, inactive and inconclusive entries below differ from those in the screen. Cut-off read from the data, not from the text of the source: active = binding response below about 49% or above about 150%; inconclusive = no clear call, values can overlap the other calls; inactive = in between.

Chains of the proteins cited; added tags and fusions are not shown.
UniProt P09471, whole entry, looked up: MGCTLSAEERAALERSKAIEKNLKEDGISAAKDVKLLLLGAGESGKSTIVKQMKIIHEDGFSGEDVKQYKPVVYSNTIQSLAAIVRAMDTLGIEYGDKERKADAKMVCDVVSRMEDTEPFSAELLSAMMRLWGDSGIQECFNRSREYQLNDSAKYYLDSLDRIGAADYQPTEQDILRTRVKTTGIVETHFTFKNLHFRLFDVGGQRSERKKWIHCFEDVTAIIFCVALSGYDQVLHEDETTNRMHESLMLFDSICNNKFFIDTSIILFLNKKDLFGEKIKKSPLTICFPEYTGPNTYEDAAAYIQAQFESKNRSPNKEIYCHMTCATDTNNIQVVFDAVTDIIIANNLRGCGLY

These compounds were tested against Guanine nucleotide-binding protein G(o) subunit alpha (Homo sapiens) (UniProt P09471) (assay: RGS7-Galphao binding modulators, primary screen, biochemical, multiplexed bead flow cytometry (AID 1439;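 note: fluorescent Galphao held in activated GDP-AlF4 state binding bead-coupled RGS7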)). Settings: at 10 µM, actives lie on both sides.
Cc1ccccc1-c1nsc(SCC(=O)c2ccc(Cl)cc2)n1 was tested, and the binding response (% of control) was inactive: 99.2%.
With CC(=O)Nc1cccc(S(N)(=O)=O)c1C the binding response (% of control) was inconclusive: 59.7%.
Cc1nc(-c2ccc(C(F)(F)F)cc2)sc1C(=O)NN was tested, and the binding response (% of control) was inconclusive: 148%.
For COc1ccc(C(CCN2CCOCC2)c2c(O)cc(OC)cc2OC)cc1 (configuration not stated), the binding response (% of control) was inconclusive: 107%.
NS(=O)(=O)c1ccc(NC(=O)COC(=O)c2cccc(S(=O)(=O)N3CCCC3)c2)cc1 was tested, and the binding response (% of control) was inconclusive: 127%.
In the case of c1cc2c3c(cccc3c1)NC1(CCC3(CC1)Nc1cccc4cccc(c14)N3)N2, the binding response (% of control) is reported as inconclusive: 174%.
COC(=O)Cc1ccc(NC(=S)N2CCCCC2C)cc1 (configuration not stated) was tested, and the binding response (% of control) was inconclusive: 80.8%.
For CC(NCCN(C)C)C(=O)C12CC3CC(CC(C3)C1)C2 (configuration not stated), the binding response (% of control) was inconclusive: 72.3%.
In the case of Cc1ccccc1CSc1nnc(-c2cnccn2)n1C, the binding response (% of control) is reported as inconclusive: 54.7%.
NC(=O)CC(NC(=O)Cc1ccc(Cl)cc1)c1ccc(NC2CCCCC2)c([N+](=O)[O-])c1 (configuration not stated) was tested, and the binding response (% of control) was inconclusive: 105%.
In the case of Cc1cc([N+](=O)[O-])nn1CC(=O)N/N=C/c1ccc(O)cc1O, the binding response (% of control) is reported as inconclusive: 32.6%.
For Cn1cnnc1Sc1ccc(C(=O)OCC(=O)NCC(F)(F)F)cc1[N+](=O)[O-], the binding response (% of control) was inconclusive: 2.17%.
O=C(Nc1cc(C(F)(F)F)cc(C(F)(F)F)c1)Nc1cnn(-c2ccc([N+](=O)[O-])cc2)c1C(F)(F)F was tested, and the binding response (% of control) was inconclusive: 72.5%.
For C=C(C)Cn1cnc2c(oc3nc4c(cc32)CCCC4)c1=O, the binding response (% of control) was inconclusive: 231%.
O=C(CCl)Nc1ccccc1C(=O)c1ccccc1 was tested, and the binding response (% of control) was inconclusive: 71.3%.
In the case of CC1CC(OCC(O)C[N+]2(C)CCOCC2)CC(C)(C)C1 (configuration not stated), the binding response (% of control) is reported as active: 20.9%.
For O=S(=O)(Nc1nc(SCc2ccc(Cl)cc2)n[nH]1)c1ccccc1, the binding response (% of control) was inconclusive: 115%.
In the case of Fc1cccc(-n2c(-c3cccs3)nc3nc4ccccc4nc32)c1, the binding response (% of control) is reported as inconclusive: 87.5%.
CC(=O)Nc1ccc(/C=N/Nc2nc3ccccc3s2)cc1 was tested, and the binding response (% of control) was inconclusive: 224%.
In the case of COC(=O)c1ccc(C(=O)OC)c(NC(=O)/C=C/C(=O)O)c1, the binding response (% of control) is reported as inconclusive: 294%.
In the case of CSc1nsc(SC)c1C(N)=O, the binding response (% of control) is reported as inconclusive: 132%.
COc1ccccc1/C=C/C=N/n1c(-c2ccccn2)n[nH]c1=S was tested, and the binding response (% of control) was inconclusive: 140%.
In the case of O=C(NC1CCCCCC1)c1ccc[nH]c1=S, the binding response (% of control) is reported as inactive: 99.8%.
In the case of Cc1ccc(S(=O)(=O)N2CCN(c3ccc([N+](=O)[O-])cn3)CC2)cc1, the binding response (% of control) is reported as inconclusive: 82.5%.
CN1C(=O)C(CC(=O)NCCc2ccccc2)N(NC(=O)c2ccc(Cl)cc2)C1=S (configuration not stated) was tested, and the binding response (% of control) was inconclusive: 134%.
COc1ccc(/C=N/NC(=S)N[C@H]2CC3CCC2C3)cc1 (some centres not stated) was tested, and the binding response (% of control) was inconclusive: 104%.
In the case of CCN1CCN(Cc2c(O)ccc3c(=O)c(-c4ccc(OC)c(OC)c4)c(C(F)(F)F)oc23)CC1, the binding response (% of control) is reported as inactive: 97.2%.
With CC1CCN(C(=O)COC(=O)[C@H](C)NS(=O)(=O)/C=C/c2ccccc2)CC1 the binding response (% of control) was inactive: 104%.
For COc1ccc(Cn2nnnc2C(c2cc3cc(C)ccc3[nH]c2=O)N2CCOCC2)cc1 (configuration not stated), the binding response (% of control) was inactive: 98.2%.
For COCCCNC(=S)NNC(=S)Nc1ccc(OC)cc1, the binding response (% of control) was inconclusive: 107%.
CCn1nnnc1SCC(=O)NC1CCCC1 was tested, and the binding response (% of control) was inactive: 90.5%.
In the case of O=C(CCSc1ccc(Br)cc1)Nc1cccnc1, the binding response (% of control) is reported as inconclusive: 108%.
With CC(C)(C)/C(O)=C/c1nc2cc(Cl)ccc2oc1=O the binding response (% of control) was inconclusive: 58%.
In the case of Cc1nc(-c2ccncc2)nc(NCCNc2ncccc2C(F)(F)F)c1Cl, the binding response (% of control) is reported as inconclusive: 96%.
For O=C(O)c1cccc(-c2ccc(/C=c3/sc4nc5ccccc5n4c3=O)o2)c1, the binding response (% of control) was inconclusive: 81.1%.
In the case of CCCN(C(=O)c1cc(S(=O)(=O)N2CCCCC2)ccc1Cl)C1CCS(=O)(=O)C1 (configuration not stated), the binding response (% of control) is reported as inconclusive: 205%.
For COc1ccc(CNC(=O)C(C)Sc2nc3ccccc3c(=O)n2CCCN2CCOCC2)cc1 (configuration not stated), the binding response (% of control) was inconclusive: 91.8%.
In the case of O=C(NCCCn1ccnc1)c1ccc(Cl)cc1, the binding response (% of control) is reported as inconclusive: 473%.
In the case of CCN(CC)S(=O)(=O)c1ccc(N/N=C/c2cccnc2)nc1, the binding response (% of control) is reported as inconclusive: 87.9%.
In the case of CC(C)NC(=O)Cn1nnc(-c2ccc(Cl)cc2)n1, the binding response (% of control) is reported as inactive: 98%.
With Cn1ncc2c(NNC(=O)c3ccc(Cl)cc3Cl)ncnc21 the binding response (% of control) was inactive: 105%.
With CC(C)Nc1nnc(SC(C)C(=O)Nc2ccc(Cl)cn2)s1 (configuration not stated) the binding response (% of control) was inactive: 98.9%.
For Cc1cc(C(=O)OCc2nnc(-c3ccccc3)o2)c(C)n1-c1ccccc1, the binding response (% of control) was inactive: 101%.
CCc1ccc(CCC(=O)Nc2nnc(C)s2)o1 was tested, and the binding response (% of control) was inactive: 90.7%.
For O=C(CNC(=O)C(c1ccccc1)c1ccccc1)N/N=C/c1cccnc1, the binding response (% of control) was inconclusive: 108%.
With O=C(NC1CCCCC1)C(c1cccnc1)N(C(=O)CCl)c1cccc(Cl)c1 (configuration not stated) the binding response (% of control) was inactive: 99%.
COc1ccc(C(=O)C[n+]2ccc3ccccc3c2C)cc1 was tested, and the binding response (% of control) was inconclusive: 115%.
For COc1ccc(NCC(=O)Nc2ccc(Br)cc2F)c(OC)c1, the binding response (% of control) was inconclusive: 101%.
With O=c1oc(-c2ccccc2F)nc2scc(-c3ccccc3)c12 the binding response (% of control) was inconclusive: 88.2%.
With COc1ccc(-n2nc([N+](=O)[O-])c(=NCCC3=CCCCC3)n2O)cc1 the binding response (% of control) was inconclusive: 73.5%.
For CC1CCCC(C)N1C(=S)NCc1ccco1 (configuration not stated), the binding response (% of control) was inconclusive: 98.7%.
NC[C@@H]1O[C@H](C23CC4CC(CC(C4)C2)C3)Cc2c1ccc(O)c2O was tested, and the binding response (% of control) was inconclusive: 60.9%.
With O=C(c1cc2c(s1)-c1ccccc1S(=O)(=O)C2)N1CCCC1 the binding response (% of control) was inconclusive: 119%.
In the case of O=C(Nc1ccccc1[N+](=O)[O-])C1(c2ccccc2)CCOCC1, the binding response (% of control) is reported as active: 334% [activator].
In the case of O=C(COC(=O)c1ccc(Cl)nc1)c1ccc2c(c1)OCCO2, the binding response (% of control) is reported as inconclusive: 76.6%.
For O=C(CCCN1C(=O)c2ccccc2C1=O)Nc1cccc(S(=O)(=O)NC2=NCCC2)c1, the binding response (% of control) was inconclusive: 109%.
CC(=O)NCC(=O)NNC1CC(=O)N(c2cccc(Cl)c2)C1=O (configuration not stated) was tested, and the binding response (% of control) was inconclusive: 112%.
In the case of C(=C\c1ccccn1)/c1ccncc1, the binding response (% of control) is reported as inconclusive: 85.6%.
With Cn1c(=O)oc2cc(S(=O)(=O)NCc3ccc(C(=O)O)cc3)ccc21 the binding response (% of control) was inconclusive: 98.8%.
For Cc1ccc(SCC(=O)c2ccc(CC(=O)O)s2)cc1, the binding response (% of control) was inconclusive: 337%.
With Cc1cc(C(=O)O)c(C)n1Cc1ccncc1 the binding response (% of control) was inconclusive: 49.4%.
In the case of CCN1CCN(CC(=O)c2cc(OC)c(OC)c(OC)c2)CC1, the binding response (% of control) is reported as inconclusive: 121%.
For CCC1S/C(=N/N=C/c2ccco2)N(Cc2ccccc2C)C1=O (configuration not stated), the binding response (% of control) was inconclusive: 112%.
For FC(F)(F)c1ccccc1NC(=S)N/N=C1\CC2CC=CC12 (configuration not stated), the binding response (% of control) was inactive: 100%.
In the case of O=C(CC1CCCCC1)NCc1nc(-c2ccccc2)no1, the binding response (% of control) is reported as inconclusive: 109%.
CCCc1nc2oc3cc(OC)ccc3c(=O)c2c(=O)n1CCc1ccccc1 was tested, and the binding response (% of control) was inconclusive: 170%.
For COC(=O)C1=C(C)NC(=O)C1(NC(=O)CN1CCCC1=O)C(F)(F)F (configuration not stated), the binding response (% of control) was inactive: 110%.
With COc1ccc(NC(=O)CC2SC(=Nc3ccccc3)NC2=O)c(OC)c1 (configuration not stated) the binding response (% of control) was inactive: 98.8%.
CCN(CC)CCN1C(=O)C(=O)/C(=C(/O)c2c(C)[nH]c(C(=O)OC)c2C)C1c1cccs1 (configuration not stated) was tested, and the binding response (% of control) was inactive: 99.3%.
With COc1cccc(CNC(=O)CCC2CCCN(C(=O)CCn3cncn3)C2)c1 (configuration not stated) the binding response (% of control) was inconclusive: 109%.
In the case of Cc1ccc(S(=O)(=O)n2nnc3ccccc32)c(C)c1C, the binding response (% of control) is reported as inconclusive: 88.9%.
With O=C(N/N=C/c1ccc([N+](=O)[O-])o1)c1ccc(NS(=O)(=O)c2cccs2)cc1 the binding response (% of control) was inconclusive: 92%.
CCS(=O)(=O)c1ccc(O)c(NC(=O)NC2CCCCC2)c1 was tested, and the binding response (% of control) was inconclusive: 90.4%.
For CCOC(=O)c1ccccc1NC(=O)CSc1nc(N)cc(=O)[nH]1, the binding response (% of control) was inconclusive: 53.3%.
C[C@H](NC(=O)c1[nH]cnc1C(=O)Nc1ccccc1)C(=O)OC(C)(C)C was tested, and the binding response (% of control) was inconclusive: 139%.
CC(C)NC(=O)CSc1nnc(CNC(=O)OC(C)(C)C)n1C was tested, and the binding response (% of control) was inconclusive: 119%.
For CN=C(C)/C(C(=O)OC)=C(/O)c1ccccc1F, the binding response (% of control) was inconclusive: 131%.
For Cc1onc(-c2c(Cl)cccc2Cl)c1-c1nnc(-c2ccc(Cl)cc2)o1, the binding response (% of control) was inconclusive: 106%.
With COc1ccc(Cc2noc(-c3ccc([N+](=O)[O-])cc3)n2)cc1OC the binding response (% of control) was inconclusive: 88.7%.
CCC(=O)Oc1ccc(C(=O)Nc2c[nH]c(=O)[nH]c2=O)cc1 was tested, and the binding response (% of control) was inactive: 102%.
For OCCC1CN(Cc2ccon2)CCN1CCc1ccccc1 (configuration not stated), the binding response (% of control) was inactive: 101%.
For O=C(Nc1cccc([N+](=O)[O-])c1)c1ccc2ccccc2c1O, the binding response (% of control) was inconclusive: 110%.
COC(=O)c1cccc(NC(=O)Cc2ccc(OC)cc2)c1C was tested, and the binding response (% of control) was inactive: 101%.
For Cc1nc2cc(NS(=O)(=O)c3ccccc3F)ccc2s1, the binding response (% of control) was inconclusive: 12.8%.
For Cc1ccc2[nH]c3c(c2c1)CN(C(=O)CN1CCCCC1)CC3, the binding response (% of control) was inconclusive: 97.2%.
For CC(C)N1CCN(Cc2ccc(Sc3nncn3C)o2)CC1CCO (configuration not stated), the binding response (% of control) was inconclusive: 84.3%.
For CN(C)c1ccc(C=NCCC2(c3ccccc3)CCOC(C)(C)C2)cc1 (configuration not stated), the binding response (% of control) was inconclusive: -61.4%.
In the case of CCn1c(Nc2ccccc2Cl)nc2ccccc21, the binding response (% of control) is reported as inconclusive: 90.9%.
With O=C1CN(C(=O)c2ccccc2F)c2ccccc2N1 the binding response (% of control) was inactive: 101%.
For CCN1/C(=C/c2ccc3cccc(C)c3[n+]2CC)Sc2ccccc21, the binding response (% of control) was active: 161% [activator].
Cc1ccc(S(=O)(=O)N2CCCCC2)cc1C(=O)Nc1cccnc1 was tested, and the binding response (% of control) was inconclusive: 108%.
With O=S(=O)(CCNCc1cccs1)c1ccc(Cl)cc1 the binding response (% of control) was inconclusive: -4.92%.
